In PMC10528058:
These are yes or no findings as the source states them, for the method shown. Binding seen in cells or lysates may run through a third protein. These calls come from enrichment with a bait or labelling near it, and not all partners need be listed.

Protein sequences, listed by entry. Tags and fused reporters are not part of them. Residues count along the entry.
UniProt P01027, residues 25-1663: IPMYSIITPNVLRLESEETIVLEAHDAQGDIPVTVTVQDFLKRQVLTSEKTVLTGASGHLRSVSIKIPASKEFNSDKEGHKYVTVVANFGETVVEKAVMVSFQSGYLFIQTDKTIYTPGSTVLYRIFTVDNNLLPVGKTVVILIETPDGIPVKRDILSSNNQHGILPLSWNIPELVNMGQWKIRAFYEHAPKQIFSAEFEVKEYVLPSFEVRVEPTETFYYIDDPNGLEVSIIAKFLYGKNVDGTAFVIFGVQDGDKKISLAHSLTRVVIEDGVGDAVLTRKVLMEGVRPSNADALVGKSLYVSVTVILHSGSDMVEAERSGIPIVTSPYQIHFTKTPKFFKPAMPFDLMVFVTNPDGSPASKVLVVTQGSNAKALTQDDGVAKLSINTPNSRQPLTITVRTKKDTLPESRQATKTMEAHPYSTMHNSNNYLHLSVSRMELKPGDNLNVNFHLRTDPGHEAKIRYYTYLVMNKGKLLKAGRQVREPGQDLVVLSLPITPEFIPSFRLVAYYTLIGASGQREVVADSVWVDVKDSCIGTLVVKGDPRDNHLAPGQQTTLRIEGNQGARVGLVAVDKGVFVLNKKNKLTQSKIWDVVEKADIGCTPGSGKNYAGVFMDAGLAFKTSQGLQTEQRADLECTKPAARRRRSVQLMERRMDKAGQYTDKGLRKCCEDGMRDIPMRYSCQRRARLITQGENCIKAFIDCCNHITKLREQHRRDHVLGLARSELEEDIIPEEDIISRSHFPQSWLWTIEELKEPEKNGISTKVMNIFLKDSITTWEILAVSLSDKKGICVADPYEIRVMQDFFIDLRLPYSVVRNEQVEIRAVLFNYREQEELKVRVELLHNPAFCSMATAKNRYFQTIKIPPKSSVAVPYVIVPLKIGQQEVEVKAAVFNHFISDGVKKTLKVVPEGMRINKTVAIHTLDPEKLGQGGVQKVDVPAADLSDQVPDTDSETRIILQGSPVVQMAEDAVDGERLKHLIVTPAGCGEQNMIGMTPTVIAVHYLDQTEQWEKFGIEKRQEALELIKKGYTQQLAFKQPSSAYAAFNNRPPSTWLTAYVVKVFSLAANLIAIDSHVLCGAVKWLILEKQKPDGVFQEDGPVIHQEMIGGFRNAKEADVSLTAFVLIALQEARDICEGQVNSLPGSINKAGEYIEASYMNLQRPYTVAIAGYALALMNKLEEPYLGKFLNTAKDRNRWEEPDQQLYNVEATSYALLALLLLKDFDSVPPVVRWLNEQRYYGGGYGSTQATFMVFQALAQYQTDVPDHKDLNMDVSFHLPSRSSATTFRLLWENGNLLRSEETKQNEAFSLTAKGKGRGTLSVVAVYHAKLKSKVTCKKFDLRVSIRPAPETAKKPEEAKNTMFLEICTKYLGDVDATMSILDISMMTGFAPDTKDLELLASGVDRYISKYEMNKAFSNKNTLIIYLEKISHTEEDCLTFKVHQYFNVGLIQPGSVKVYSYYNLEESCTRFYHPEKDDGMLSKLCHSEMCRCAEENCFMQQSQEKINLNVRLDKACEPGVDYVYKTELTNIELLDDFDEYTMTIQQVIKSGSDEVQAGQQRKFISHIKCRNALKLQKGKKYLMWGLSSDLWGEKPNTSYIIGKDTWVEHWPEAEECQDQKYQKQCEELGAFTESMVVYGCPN
UniProt P62897: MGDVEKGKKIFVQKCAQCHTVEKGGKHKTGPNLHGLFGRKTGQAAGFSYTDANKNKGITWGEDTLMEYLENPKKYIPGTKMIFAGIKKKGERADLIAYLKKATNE

Target: complement C3 (mouse, in heart lysate or cytosolic fraction of WT mice after I/R) (mouse (endogenous in C57BL/6 heart)) (UniProt P01027)
Assay: affinity purification with mass spectrometry; C3-containing complexes isolated with anti-C3d conjugated Dynabeads from heart lysates of WT and C3-/- mice after 1 h ischemia/3 h reperfusion; trypsin digest, label-free shotgun LC-MS, WT compared with C3-/-

binding: binds
Substance: cytochrome c (mouse, heart) (from UniProt P62897 1-105)
